This is one part of the list. Most entries show no effect beyond the scatter of the controls.

Amino acid sequences for entries named in this document (tags omitted). A change or cut given only in a name is not applied to a line headed by its entry.
UniProt Q8BVN4: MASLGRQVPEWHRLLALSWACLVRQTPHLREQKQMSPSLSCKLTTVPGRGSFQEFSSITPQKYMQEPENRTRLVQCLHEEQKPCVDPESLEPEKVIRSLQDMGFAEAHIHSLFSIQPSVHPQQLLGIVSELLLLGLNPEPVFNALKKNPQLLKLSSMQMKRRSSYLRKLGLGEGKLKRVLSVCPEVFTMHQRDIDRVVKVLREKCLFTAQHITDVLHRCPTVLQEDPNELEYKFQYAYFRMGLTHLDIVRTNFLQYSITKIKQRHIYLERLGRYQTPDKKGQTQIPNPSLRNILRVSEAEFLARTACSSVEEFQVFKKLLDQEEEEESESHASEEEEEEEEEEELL
UniProt Q8BXN7: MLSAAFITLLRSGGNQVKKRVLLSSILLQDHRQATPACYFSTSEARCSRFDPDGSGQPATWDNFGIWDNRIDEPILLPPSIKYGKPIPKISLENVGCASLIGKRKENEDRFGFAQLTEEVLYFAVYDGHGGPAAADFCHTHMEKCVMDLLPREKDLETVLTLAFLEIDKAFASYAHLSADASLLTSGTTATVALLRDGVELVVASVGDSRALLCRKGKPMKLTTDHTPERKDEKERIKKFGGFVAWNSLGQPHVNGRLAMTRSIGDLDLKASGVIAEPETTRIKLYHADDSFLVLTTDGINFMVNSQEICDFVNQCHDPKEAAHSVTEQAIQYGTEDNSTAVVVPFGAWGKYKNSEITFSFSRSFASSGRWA
UniProt Q8C811: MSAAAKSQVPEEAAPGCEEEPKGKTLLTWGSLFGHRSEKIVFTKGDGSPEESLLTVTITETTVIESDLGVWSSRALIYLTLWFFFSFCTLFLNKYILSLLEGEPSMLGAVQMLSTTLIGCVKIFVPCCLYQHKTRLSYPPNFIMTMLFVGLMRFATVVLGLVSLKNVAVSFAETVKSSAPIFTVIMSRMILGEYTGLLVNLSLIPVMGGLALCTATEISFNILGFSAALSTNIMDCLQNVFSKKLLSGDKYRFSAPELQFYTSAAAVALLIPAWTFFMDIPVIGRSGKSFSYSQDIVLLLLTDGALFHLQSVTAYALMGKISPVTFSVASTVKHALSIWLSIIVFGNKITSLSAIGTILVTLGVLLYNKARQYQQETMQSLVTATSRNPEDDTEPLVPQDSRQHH
UniProt Q8C6M1, whole entry: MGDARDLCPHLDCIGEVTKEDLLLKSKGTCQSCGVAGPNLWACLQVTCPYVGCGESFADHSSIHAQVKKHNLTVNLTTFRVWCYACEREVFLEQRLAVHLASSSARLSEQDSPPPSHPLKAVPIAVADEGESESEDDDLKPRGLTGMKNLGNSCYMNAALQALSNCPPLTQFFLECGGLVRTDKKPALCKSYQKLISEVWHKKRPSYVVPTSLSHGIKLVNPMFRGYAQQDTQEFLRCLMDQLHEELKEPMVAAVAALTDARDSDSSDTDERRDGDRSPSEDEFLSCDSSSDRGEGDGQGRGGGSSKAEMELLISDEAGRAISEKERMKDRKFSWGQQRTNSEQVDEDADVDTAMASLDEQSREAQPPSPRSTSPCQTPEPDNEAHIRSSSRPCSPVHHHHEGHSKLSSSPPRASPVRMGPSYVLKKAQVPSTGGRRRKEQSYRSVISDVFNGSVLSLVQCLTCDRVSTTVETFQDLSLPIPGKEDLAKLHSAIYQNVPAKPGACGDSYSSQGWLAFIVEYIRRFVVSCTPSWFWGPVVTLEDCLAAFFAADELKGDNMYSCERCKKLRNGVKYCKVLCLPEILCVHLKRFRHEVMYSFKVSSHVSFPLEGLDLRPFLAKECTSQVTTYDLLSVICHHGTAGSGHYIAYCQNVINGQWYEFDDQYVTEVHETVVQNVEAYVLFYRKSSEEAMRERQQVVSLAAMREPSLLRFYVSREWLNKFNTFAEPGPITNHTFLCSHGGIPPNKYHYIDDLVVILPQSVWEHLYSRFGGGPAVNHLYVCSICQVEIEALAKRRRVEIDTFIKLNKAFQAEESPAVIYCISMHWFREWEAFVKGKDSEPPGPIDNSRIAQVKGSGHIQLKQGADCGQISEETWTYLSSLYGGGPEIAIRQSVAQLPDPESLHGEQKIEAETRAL
UniProt Q8BY02: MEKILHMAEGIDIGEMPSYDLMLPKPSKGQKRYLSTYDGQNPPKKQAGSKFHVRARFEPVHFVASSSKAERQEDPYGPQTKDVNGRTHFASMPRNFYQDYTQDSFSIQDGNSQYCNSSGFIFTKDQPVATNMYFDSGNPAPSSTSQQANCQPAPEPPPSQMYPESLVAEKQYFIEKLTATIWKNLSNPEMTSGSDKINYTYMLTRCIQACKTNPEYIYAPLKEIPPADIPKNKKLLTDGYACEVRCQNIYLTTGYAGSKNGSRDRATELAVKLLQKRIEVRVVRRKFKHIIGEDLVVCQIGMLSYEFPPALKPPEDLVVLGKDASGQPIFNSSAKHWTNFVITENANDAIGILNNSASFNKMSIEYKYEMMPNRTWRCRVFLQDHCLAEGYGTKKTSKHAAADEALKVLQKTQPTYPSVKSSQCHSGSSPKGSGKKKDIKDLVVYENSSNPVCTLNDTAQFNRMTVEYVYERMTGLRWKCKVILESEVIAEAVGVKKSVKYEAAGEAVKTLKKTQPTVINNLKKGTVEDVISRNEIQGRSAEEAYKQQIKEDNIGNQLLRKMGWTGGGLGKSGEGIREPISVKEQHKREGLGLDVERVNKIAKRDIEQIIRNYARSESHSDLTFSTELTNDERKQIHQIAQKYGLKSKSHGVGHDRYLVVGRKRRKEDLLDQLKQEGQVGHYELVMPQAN
UniProt Q8BZN4: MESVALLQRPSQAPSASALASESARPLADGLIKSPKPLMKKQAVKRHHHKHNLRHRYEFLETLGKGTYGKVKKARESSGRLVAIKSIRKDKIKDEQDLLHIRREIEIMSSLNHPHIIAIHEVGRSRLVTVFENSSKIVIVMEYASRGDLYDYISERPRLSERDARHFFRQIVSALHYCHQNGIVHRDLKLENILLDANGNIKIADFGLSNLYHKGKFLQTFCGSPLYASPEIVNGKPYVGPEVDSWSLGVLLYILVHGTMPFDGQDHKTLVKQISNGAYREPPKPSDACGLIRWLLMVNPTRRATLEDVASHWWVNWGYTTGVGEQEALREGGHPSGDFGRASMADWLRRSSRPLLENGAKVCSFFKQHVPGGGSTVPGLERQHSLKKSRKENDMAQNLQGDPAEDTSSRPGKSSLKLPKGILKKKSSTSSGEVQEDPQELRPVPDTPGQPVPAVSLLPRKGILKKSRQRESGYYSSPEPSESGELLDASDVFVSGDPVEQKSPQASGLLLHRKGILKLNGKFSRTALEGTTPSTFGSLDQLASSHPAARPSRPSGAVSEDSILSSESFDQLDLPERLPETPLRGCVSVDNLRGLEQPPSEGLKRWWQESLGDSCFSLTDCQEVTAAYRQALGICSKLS
UniProt Q8C0L0: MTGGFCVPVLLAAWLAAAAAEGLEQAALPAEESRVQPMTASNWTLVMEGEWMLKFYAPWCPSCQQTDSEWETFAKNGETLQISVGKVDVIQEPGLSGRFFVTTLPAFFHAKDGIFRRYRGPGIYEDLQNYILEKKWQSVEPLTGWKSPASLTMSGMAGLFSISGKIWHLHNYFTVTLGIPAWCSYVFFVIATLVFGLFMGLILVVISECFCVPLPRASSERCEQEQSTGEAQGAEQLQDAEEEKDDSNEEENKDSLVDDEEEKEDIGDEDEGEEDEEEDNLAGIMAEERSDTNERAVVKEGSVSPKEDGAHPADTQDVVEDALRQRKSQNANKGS
UniProt Q8BVU5: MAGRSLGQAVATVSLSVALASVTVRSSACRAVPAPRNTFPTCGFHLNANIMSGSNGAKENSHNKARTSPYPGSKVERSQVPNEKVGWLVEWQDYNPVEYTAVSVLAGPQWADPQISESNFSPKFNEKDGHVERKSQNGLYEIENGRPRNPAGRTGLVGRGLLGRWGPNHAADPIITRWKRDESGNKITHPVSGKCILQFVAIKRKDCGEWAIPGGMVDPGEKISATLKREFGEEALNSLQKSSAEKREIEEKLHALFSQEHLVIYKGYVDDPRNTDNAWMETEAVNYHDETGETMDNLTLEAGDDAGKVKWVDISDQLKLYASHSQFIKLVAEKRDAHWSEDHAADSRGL
UniProt Q8C0C0: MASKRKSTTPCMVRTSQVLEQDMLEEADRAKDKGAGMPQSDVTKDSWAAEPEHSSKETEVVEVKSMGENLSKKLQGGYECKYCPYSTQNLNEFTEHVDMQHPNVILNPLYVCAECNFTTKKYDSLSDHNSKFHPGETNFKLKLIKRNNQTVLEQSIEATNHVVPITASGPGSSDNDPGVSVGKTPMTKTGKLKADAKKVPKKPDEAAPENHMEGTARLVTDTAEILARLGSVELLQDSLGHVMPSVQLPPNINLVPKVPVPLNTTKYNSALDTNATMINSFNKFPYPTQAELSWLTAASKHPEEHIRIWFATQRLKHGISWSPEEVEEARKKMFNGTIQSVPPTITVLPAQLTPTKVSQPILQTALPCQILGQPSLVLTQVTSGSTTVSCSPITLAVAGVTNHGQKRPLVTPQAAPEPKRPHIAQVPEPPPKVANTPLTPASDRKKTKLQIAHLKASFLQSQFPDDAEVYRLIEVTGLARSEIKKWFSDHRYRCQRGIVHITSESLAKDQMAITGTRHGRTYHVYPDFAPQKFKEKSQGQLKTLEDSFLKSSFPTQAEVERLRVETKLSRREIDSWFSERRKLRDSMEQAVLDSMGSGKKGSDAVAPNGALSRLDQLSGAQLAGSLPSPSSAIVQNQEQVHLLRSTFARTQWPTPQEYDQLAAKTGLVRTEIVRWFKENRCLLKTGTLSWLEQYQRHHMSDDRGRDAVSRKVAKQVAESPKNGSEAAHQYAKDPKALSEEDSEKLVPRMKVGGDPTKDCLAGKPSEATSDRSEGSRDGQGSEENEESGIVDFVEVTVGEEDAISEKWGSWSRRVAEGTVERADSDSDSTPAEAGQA
UniProt Q8BVL3: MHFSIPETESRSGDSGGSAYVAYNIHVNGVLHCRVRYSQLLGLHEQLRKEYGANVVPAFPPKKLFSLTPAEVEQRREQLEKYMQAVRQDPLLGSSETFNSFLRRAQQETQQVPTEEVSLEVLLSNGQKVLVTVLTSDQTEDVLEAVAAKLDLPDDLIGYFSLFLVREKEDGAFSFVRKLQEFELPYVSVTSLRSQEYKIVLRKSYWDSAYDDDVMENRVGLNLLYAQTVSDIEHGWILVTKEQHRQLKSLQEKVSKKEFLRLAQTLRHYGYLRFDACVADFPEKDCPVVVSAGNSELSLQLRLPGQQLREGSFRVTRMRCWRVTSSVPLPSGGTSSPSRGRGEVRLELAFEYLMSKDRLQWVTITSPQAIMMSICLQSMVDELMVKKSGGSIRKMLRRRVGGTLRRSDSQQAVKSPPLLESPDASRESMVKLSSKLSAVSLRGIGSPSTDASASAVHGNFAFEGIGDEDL
UniProt Q8C1E7: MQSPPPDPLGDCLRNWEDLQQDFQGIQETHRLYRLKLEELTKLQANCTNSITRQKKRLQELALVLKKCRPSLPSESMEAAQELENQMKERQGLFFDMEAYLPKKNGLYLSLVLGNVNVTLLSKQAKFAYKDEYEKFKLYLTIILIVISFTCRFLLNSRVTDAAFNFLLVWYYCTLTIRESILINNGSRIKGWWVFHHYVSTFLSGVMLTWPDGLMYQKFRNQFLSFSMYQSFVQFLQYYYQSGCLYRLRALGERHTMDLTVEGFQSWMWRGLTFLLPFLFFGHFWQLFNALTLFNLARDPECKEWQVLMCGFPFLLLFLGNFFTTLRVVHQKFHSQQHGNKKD

Compound in the assay: CN[C@@H]1C[C@H]2O[C@@](C)([C@@H]1OC)n1c3ccccc3c3c4c(c5c6ccccc6n2c5c31)C(=O)NC4 [staurosporine]
Briefly: log2 fold change of tryptic peptide abundance, ligand vs vehicle (limited proteolysis) (log2 ratio); higher = more trypsin-susceptible (destabilized). As to conditions: ligand concentration: 20 uM; sample: mouse liver crude lysate; replicate design: treated separately.

As for “UniProt Q8BVN4 (peptide sequence: VSEAEFLAR, peptide start residue: 296)”, the log2 fold change is 0.287.
As for “UniProt Q8BXN7 (peptide sequence: LTTDHTPER, peptide start residue: 222)”, the figure is 0.154; as for “UniProt Q8C811 (peptide sequence: TLLTWGSLFGHR, peptide start residue: 25)”, 0.162; as for “UniProt Q8C6M1 (peptide sequence: EWEAFVK, peptide start residue: 829)”, -0.438.
As to “UniProt Q8BY02 (peptide sequence: VFLQDHCLAEGYGTK, peptide start residue: 380)”, the log2 fold change is 0.587.
In the case of “UniProt Q8BZN4 (peptide sequence: ASMADWLR, peptide start residue: 342)”, the log2 fold change worked out at 0.397.
On to “UniProt Q8C0L0 (peptide sequence: EDGAHPADTQDVVEDALR, peptide start residue: 307)”, for which the log2 fold change is -0.0346.
On to “UniProt Q8BVU5 (peptide sequence: WVDISDQLK, peptide start residue: 311)”, for which the log2 fold change was 0.126.
Turning to “UniProt Q8C0C0 (peptide sequence: NGSEAAHQYAKDPK, peptide start residue: 722)”, the log2 fold change was found to be 0.425.
The result for “UniProt Q8BVL3 (peptide sequence: YSQLLGLHEQLRK, peptide start residue: 37)” reads 0.291.
Take “UniProt Q8C1E7 (peptide sequence: LQANCTNSITR, peptide start residue: 43)”: the log2 fold change is -0.0821.

The values above are taken from the supplement of paper PMC12819154, “High-throughput peptide-centric local stability assay extends protein–ligand identification to membrane proteins, tissues and bacteria” (Nature Structural & Molecular Biology, 2025).
